Assay results: publication doi:10.1101/2021.06.28.450115

Target: T1, DAB2IP (endogenous, SW48) (human (endogenous in SW48)) (UniProt Q5VWQ8)
T1 sequence: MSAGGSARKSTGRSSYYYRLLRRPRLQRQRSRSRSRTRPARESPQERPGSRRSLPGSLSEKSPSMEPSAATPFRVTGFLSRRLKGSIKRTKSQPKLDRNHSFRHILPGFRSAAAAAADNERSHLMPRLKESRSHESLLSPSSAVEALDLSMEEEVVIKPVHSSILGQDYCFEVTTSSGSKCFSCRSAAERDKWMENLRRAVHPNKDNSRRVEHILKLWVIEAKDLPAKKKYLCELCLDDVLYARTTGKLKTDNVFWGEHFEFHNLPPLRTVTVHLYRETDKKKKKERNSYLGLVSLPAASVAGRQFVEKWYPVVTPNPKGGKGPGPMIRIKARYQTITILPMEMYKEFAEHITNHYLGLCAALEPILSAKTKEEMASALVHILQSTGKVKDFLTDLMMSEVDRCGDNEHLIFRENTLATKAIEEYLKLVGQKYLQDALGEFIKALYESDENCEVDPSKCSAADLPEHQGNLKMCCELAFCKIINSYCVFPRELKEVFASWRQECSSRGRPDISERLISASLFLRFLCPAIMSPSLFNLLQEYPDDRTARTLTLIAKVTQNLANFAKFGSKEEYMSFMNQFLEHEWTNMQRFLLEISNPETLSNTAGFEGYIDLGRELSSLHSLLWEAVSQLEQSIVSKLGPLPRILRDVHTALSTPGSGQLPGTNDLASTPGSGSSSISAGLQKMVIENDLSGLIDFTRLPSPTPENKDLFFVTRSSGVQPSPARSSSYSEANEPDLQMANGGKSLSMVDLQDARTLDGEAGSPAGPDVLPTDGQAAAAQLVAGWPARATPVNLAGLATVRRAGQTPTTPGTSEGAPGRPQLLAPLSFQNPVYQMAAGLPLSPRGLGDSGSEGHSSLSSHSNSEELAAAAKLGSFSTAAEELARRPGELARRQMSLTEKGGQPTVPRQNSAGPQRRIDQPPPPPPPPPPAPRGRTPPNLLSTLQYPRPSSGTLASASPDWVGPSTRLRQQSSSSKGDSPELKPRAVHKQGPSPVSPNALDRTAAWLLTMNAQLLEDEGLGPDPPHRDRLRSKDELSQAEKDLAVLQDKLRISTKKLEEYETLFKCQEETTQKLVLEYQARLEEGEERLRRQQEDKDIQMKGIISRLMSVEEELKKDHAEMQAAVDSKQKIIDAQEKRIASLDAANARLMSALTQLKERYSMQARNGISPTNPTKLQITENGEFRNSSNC
Test: affinity purification with mass spectrometry

Substance: HSP90AA1 (endogenous, SW48) (from UniProt P07900 1-732)
- binding: binds

No constants are given. Whether binding was seen depends on the method and setting. In cells and extracts the contact can be indirect. Here binding means that the protein was enriched with, or labelled near, the bait; the list need not be complete.
